Experimental data reported in patent US20160009788A1 (UNITED STATES OF AMERICA AS REPRESENTED BY THE SECRETARY …, published 2016).

Legend:
lysozyme [1] = assay: ELISA, antigen on the solid phase, soluble Fab
phosphorylase b [2] = assay: ELISA, antigen on the solid phase, soluble Fab
thyroglobulin [3] = assay: ELISA, antigen on the solid phase, soluble Fab
lysozyme [4] = assay: condition: about 300 ng/ml (last point, right of the 100 tick); ELISA, antigen coated directly on the plate
phosphorylase b [5] = assay: as above
thyroglobulin [6] = assay: as above

Measured: binding

B1: anti-NV Fab D8 (Fab, V domains shown)
VH: EVQLEESGGGLVQPGGSLRVSCAASGFPFNGYWIHWVRQAPGKGLEWVSRVNSDGRITNFADSVMGRFTMSRDNAKSTVYLQMNSLRAEDTAMYYCSRGGYTGYPEGHWGQGTLVTVS
VL: ELQMTQSPSSLSAAVGDSVTITCRASQGISIHLAWYQQKPGKVPNLLIYAASTLQSGVPSRFSGSGSGTDFTLTINSLQPEVFATYYCQKYDSAPFTFGPGTKVDIKR
no binding: all assays above

B2: anti-NV Fab E5 (Fab, V domains shown)
VH: EVQLEQSGGGLIKPGGSLRLSCAASGFTFTKYVMHWVRQAPEKGLQWVSAIGGSGGSAWYADSVKGRFTISRDNSKNTLYLQMNSLRAEDTAVYYCARDHARYSGYNSPHEVDSWGQGTLVAVS
VL: ELELTQSPSSLSASVGDRVTITCRASQGISNYLAWYQQKPGKVPKLLIYAASTLQSGVPSRFSGSGSGTDFTLTISSLQPEDVATYYCQKYNSAPLTFGGGTKVEIKR
notes: also called ES [sic]
no binding: lysozyme [1] | phosphorylase b [2] | thyroglobulin [3]

B3: anti-NV Fab G4 (Fab, V domains shown)
VH: EVQLEESGGGLVKPGGSLRLSCAASGFTFSHYVMYWVRQAPEKGLEWVSTISGSGSSTWYPDSVKGRFTVSRDNSKNTLYLQMNSLRGDDTAVYYCARLQGQLVYWGLGTLVTVS
VL: ELQMTQSPSTLSASVGDRVTITCRASQGISSWLAWYQQKPGRAPKLLIYKSSTLESGVPSRFSGSGSGTEFTLTISSLQPDDFATYFCQQYSSNPPLTFGGGTKVEIKR
notes: also called Norwalk Fab G4
no binding: lysozyme [1] | phosphorylase b [2] | thyroglobulin [3]

B4: anti-NV Fab F11 (Fab, V domains shown)
VH: EVQLVETGGSLVQPGGSLRLSCAASGFSVSIYHMSWVRQAPGKGLEWVSLLYSGGSTYYADSVKGRFTISRDNSKNTLYLQMNSLRAEDTAVYYCARDYSGSWVGDEARSYYYYYYMDVWGKGTTVTVS
VL: ELQVTQSPSSLSASVGDRVTITCQASQDISYYLNWYQQRPGKVPKLLIYSASYLHSGVPSRFSGSGSGTDFTLTISSLQPEDVATYYCQRTYNAPYTFGQGTKVEIKR
no binding: lysozyme [1] | phosphorylase b [2] | thyroglobulin [3]

B5: anti-NV Fab B7 (Fab, V domains shown)
VH: EVQLEESGGDLVQPGGSLTLSCAASGFTFSRYWMSWVRQAPGKGPEWVASIKKDGSETFYADSVKGRFIISRDIAKTSLYLQMNSLRADDTAVYYCLRAWYSSAYDFWGQGTLVTVS
VL: ELELTQSPSSLSASVGDRVTITCRASQSISNYLNWYQQKPGKAPNLLIYYASTLQSGVPSRFSGSGSGTDFTLTISSLQPEDFATYYCQHGYGAIAFGQGTRLEIKR
no binding: lysozyme [1] | phosphorylase b [2] | thyroglobulin [3]

No constants are given. Whether binding was seen depends on the method and setting.
